From publication doi:10.1101/2025.03.07.642025, “The TONSL-MMS22L complex and FANCM form an interdependent complex on chromatin to counter replication stress” (bioRxiv, 2025)
No constants are given. Whether binding was seen depends on the method and setting. For some assays here: Binding seen in cells or lysates may run through a third protein. Some results given as binding are weak or reduced against the parent protein; the word gives no strength.

Sequences of proteins named here, by UniProt entry; tags and fusion partners are left off.
UniProt Q8IYD8: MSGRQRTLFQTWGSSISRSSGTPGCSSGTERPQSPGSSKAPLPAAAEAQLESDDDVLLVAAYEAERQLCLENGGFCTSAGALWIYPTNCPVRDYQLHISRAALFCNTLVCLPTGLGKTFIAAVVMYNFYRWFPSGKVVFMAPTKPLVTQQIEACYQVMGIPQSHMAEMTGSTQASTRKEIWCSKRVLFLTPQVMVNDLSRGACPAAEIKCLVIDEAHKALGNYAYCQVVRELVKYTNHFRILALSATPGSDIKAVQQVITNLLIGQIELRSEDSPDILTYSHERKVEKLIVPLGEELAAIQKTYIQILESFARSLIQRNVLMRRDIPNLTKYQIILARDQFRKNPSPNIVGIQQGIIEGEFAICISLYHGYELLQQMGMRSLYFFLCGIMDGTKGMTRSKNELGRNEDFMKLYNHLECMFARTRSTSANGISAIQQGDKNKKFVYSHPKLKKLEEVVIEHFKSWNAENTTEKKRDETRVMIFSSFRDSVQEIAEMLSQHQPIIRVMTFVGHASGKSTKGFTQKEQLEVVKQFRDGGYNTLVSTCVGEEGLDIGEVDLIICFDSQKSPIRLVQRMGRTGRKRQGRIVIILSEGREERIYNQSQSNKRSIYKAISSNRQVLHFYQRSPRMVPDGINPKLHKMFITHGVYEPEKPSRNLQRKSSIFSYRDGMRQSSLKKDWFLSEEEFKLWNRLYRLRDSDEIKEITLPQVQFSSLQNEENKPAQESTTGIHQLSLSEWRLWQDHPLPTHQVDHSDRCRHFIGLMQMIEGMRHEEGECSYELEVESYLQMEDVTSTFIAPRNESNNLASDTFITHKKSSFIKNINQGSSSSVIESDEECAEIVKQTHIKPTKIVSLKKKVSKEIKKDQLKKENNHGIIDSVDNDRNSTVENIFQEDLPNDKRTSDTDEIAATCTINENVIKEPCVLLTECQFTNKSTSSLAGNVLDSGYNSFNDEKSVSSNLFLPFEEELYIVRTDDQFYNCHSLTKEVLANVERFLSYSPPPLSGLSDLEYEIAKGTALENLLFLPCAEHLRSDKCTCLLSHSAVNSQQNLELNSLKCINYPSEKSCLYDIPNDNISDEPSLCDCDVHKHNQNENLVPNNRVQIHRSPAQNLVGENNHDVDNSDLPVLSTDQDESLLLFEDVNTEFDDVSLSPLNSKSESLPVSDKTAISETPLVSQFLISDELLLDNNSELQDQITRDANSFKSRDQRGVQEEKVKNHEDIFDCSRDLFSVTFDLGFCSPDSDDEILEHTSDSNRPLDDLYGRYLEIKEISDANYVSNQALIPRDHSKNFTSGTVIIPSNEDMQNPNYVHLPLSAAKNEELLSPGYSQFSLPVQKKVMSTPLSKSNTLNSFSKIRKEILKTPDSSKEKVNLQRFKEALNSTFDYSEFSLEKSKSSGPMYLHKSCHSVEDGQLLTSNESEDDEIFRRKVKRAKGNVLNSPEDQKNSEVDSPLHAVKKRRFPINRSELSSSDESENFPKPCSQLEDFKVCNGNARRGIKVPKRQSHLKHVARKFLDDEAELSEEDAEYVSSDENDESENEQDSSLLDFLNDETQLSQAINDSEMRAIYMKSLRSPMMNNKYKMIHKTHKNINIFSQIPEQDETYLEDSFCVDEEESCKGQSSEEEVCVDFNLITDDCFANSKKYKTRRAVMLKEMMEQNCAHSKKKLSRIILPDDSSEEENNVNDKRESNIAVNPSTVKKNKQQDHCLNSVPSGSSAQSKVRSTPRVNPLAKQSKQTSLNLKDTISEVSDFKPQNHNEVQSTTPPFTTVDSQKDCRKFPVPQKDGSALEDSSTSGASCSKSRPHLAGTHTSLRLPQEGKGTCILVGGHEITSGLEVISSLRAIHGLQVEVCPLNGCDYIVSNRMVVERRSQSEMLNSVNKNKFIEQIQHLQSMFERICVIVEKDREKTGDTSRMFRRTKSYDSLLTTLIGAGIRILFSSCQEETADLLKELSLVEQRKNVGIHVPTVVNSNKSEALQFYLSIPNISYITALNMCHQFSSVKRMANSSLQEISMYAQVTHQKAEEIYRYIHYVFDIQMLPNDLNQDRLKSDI
UniProt Q8N2Z9: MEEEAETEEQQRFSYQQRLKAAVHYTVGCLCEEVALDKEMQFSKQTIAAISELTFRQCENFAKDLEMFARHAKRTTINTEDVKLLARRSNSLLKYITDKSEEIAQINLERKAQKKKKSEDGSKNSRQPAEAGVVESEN

What was measured:
[1] = target: FANCM (human (endogenous in HeLa)) (UniProt Q8IYD8); experiment: proximity ligation; Duolink PLA in HeLa cells treated with UVA only (no replication stress)
[2] = target: FANCM (human (endogenous in HeLa)) (UniProt Q8IYD8); experiment: co-IP; IP with FANCM or MHF1 antibody, western blotting; preimmune serum as control; HU-treated HeLa
[3] = target: MHF1 (human (endogenous in HeLa)) (UniProt Q8N2Z9); experiment: as above
[4] = target: Flag-tagged FANCM (human) (UniProt Q8IYD8); experiment: co-IP; Flag antibody purification from HU-treated HEK293 cells stably expressing Flag-FANCM; immunoblotting
[5] = target: FANCM (human (endogenous in HeLa)) (UniProt Q8IYD8); experiment: SEC; Superose 6 gel filtration of soluble chromatin-bound proteins of HU-treated HeLa cells; fractions immunoblotted

binding [1]: binds weakly
binding [2]: binds
binding [3]: binds
binding [4]: binds
binding [5]: binds
B1: MMS22L (natural protein, human (endogenous in HeLa), UniProt Q6ZRQ5 1-1243, looked up)
chain: MENCSAASTFLTDSLELELGTEWCKPPYFSCAVDNRGGGKHFSGESYLCSGALKRLILNLDPLPTNFEEDTLEIFGIQWVTETALVNSSRELFHLFRQQLYNLETLLQSSCDFGKVSTLHCKADNIRQQCVLFLHYVKVFIFRYLKVQNAESHVPVHPYEALEAQLPSVLIDELHGLLLYIGHLSELPSVNIGAFVNQNQIKLFPPSWHLLHLHLDIHWLVLEILYMLGEKLKQVVYGHQFMNLASDNLTNISLFEEHCETLLCDLISLSLNRYDKVRSSESLMSDQCPCLCIKELWVLLIHLLDHRSKWFVSESFWNWLNKLLKTLLEKSSDRRRSSMPVIQSRDPLGFSWWIITHVASFYKFDRHGVPDEMRKVESNWNFVEELLKKSISVQGVILEEQLRMYLHCCLTLCDFWEPNIAIVTILWEYYSKNLNSSFSISWLPFKGLANTMKSPLSMLEMVKTCCCDKQDQELYKSSSSYTIFLCILAKVVKKAMKSNGPHPWKQVKGRIYSKFHQKRMEELTEVGLQNFFSLFLLLAAVAEVEDVASHVLDLLNFLKPAFVTSQRALIWKGHMAFLLMYAQKNLDIGVLAEKFSCAFREKAKEFLVSKNEEMVQRQTIWTLLSIYIDGVQEVFETSYCLYPSHEKLLNDGFSMLLRACRESELRTVLSFLQAVLARIRSMHQQLCQELQRDNVDLFVQSSLSAKERHLAAVASALWRHFFSFLKSQRMSQVVPFSQLADAAADFTLLAMDMPSTAPSDFQPQPVISIIQLFGWDDIICPQVVARYLSHVLQNSTLCEALSHSGYVSFQALTVRSWIRCVLQMYIKNLSGPDDLLIDKNLEEAVEKEYMKQLVKLTRLLFNLSEVKSIFSKAQVEYLSISEDPKKALVRFFEAVGVTYGNVQTLSDKSAMVTKSLEYLGEVLKYIKPYLGKKVFSAGLQLTYGMMGILVKSWAQIFATSKAQKLLFRIIDCLLLPHAVLQQEKELPAPMLSAIQKSLPLYLQGMCIVCCQSQNPNAYLNQLLGNVIEQYIGRFLPASPYVSDLGQHPVLLALRNTATIPPISSLKKCIVQVIRKSYLEYKGSSPPPRLASILAFILQLFKETNTDIYEVELLLPGILKCLVLVSEPQVKRLATENLQYMVKACQVGSEEEPSSQLTSVFRQFIQDYGMRYYYQVYSILETVATLDQQVVIHLISTLTQSLKDSEQKWGLGRNIAQREAYSKLLSHLGQMGQDEMQRLENDNT
notes: MMS22L, human, endogenous in HeLa cells; source: endogenous, HeLa
